Values from PubChem BioAssay AID504764 (Drosophila RNAi Screening Center, 2011)

Test: 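Knock-downs that raise or lower a Notch target reporter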 (primary screen)
System: Drosophila Kc167 cells
Reagent: long dsRNA against Drosophila genes
Time to read-out: about 5 days (4 days dsRNA, then 24 h after transfection)
Conditions: transfection of constitutively active membrane-tethered Notch lacking the extracellular domain, read 24 h later
Measured: 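Light from a Notch-responsive E(spl)m3 luciferase reporter under active Notch, with control-promoter and no-Notch reporter wells to normalise; raw counts from paired wells a and b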
Direction: induced reporter light, run 1, well a and induced reporter light, run 1, well b: higher = more light from the Notch target reporter with active Notch; control promoter light, run 1, well a and control promoter light, run 1, well b: higher = more light from the viral control promoter (cell number, transfection, viability); uninduced reporter light, run 1, well a: higher = more light from the Notch target reporter without active Notch
Active means: 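Wells with low control signal or poorly matching duplicates excluded; duplicates averaged; per source plate, z beyond ±2 for induced/control log2 ratio or beyond ±1.8 for induced/uninduced marks a hit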
Meaning of the calls: active = modifier hit (raised or lowered Notch signal); inactive = not a hit
The deposit covers about 22,000 reagents; shown is a random part of those with a known target gene and a result. Of all reagents, 403 (1.9%) are marked active. 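Unnormalised raw counts per well; ratio z-scores behind the hit calls and whether each hit raises or lowers signal are not deposited.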 The numbers tell different reagents against one gene apart. Names joined by + are all predicted targets of the reagent. The record does not give: the amount of reagent.

The first 6 entries, ahead of the listing:
no.	Target gene	reagent no.	induced reporter light, run 1, well a	induced reporter light, run 1, well b	control promoter light, run 1, well a	control promoter light, run 1, well b	uninduced reporter light, run 1, well a	Outcome
1	Mccc1 (Methylcrotonoyl-CoA carboxylase 1)	1	2.64e5	1.93e5	2.66e5	2.53e5	12630	inactive
2	rswl (roswell)	1	82300	86870	1.85e5	1.96e5	7370	inactive
3	CG2063	1	1.02e5	1.06e5	1.00e5	1.15e5	6370	active
4	Rph (Rabphilin)	1	70030	64440	1.66e5	1.35e5	8120	inactive
5	Sfp38D (Seminal fluid protein 38D)	1	72470	66475	68525	80820	7045	inactive
6	CG7544	1	2.16e5	2.13e5	3.33e5	3.22e5	14780	inactive

The listing, from the first entry:
no.	Target gene	reagent no.	induced reporter light, run 1, well a	induced reporter light, run 1, well b	control promoter light, run 1, well a	control promoter light, run 1, well b	uninduced reporter light, run 1, well a	Outcome
1	Mccc1 (Methylcrotonoyl-CoA carboxylase 1)	1	2.64e5	1.93e5	2.66e5	2.53e5	12630	inactive
2	rswl (roswell)	1	82300	86870	1.85e5	1.96e5	7370	inactive
3	CG2063	1	1.02e5	1.06e5	1.00e5	1.15e5	6370	active
4	Rph (Rabphilin)	1	70030	64440	1.66e5	1.35e5	8120	inactive
5	Sfp38D (Seminal fluid protein 38D)	1	72470	66475	68525	80820	7045	inactive
6	CG7544	1	2.16e5	2.13e5	3.33e5	3.22e5	14780	inactive
7	cmet (CENP-meta)	1	1.09e5	1.43e5	64985	84585	17265	inactive
8	CG10674	1	2.05e5	1.88e5	1.79e5	2.69e5	8360	inactive
9	CG8303	1	1.70e5	1.11e5	1.76e5	1.66e5	11955	inactive
10	RhoGDI	1	1.16e5	1.07e5	78280	85190	9345	inactive
11	blanks	1	2.04e5	2.07e5	2.58e5	2.38e5	11840	inactive
12	mtSSB (mitochondrial single stranded DNA-binding protein)	1	2.71e5	2.32e5	2.52e5	2.30e5	20275	inactive
13	Tim17b1	1	95385	1.16e5	89005	60880	7355	inactive
14	CG10948	1	1.80e5	2.00e5	2.39e5	2.05e5	10145	inactive
15	CG6231	1	1.89e5	1.77e5	1.82e5	1.94e5	13540	inactive
16	CG42269	1	1.36e5	1.38e5	1.49e5	1.56e5	5985	inactive
17	CG42269	2	1.69e5	1.54e5	1.63e5	1.58e5	6600	inactive
18	Nf-YC (Nuclear factor Y-box C)	1	6290	6895	8380	9355	3290	inactive
19	DIP2 (DISCO Interacting Protein 2)	1	46705	54095	66225	76110	3240	inactive
20	tud (tudor)	1	50470	45280	53455	62390	2635	inactive
21	CG3587	1	2.27e5	2.14e5	2.87e5	2.65e5	18750	inactive
22	nonC (no-on-and-no-off transient C)	1	72545	68510	92360	1.07e5	3915	inactive
23	nonC (no-on-and-no-off transient C)	2	1.36e5	1.41e5	3.60e5	3.17e5	10092	active
24	Stam (Signal transducing adaptor molecule)	1	2.23e5	2.77e5	2.07e5	1.59e5	19378	inactive
25	Sptr (Sepiapterin reductase)	1	2.69e5	2.32e5	3.90e5	3.10e5	18375	inactive
26	Vrp1 (Verprolin 1)	1	2.14e5	2.34e5	2.09e5	2.34e5	15345	inactive
27	bdwf (bedwarfed)	1	87630	90280	83275	75985	8960	inactive
28	CG18539	1	40780	38420	46485	49910	4555	inactive
29	CG33109	1	3.48e5	3.56e5	3.44e5	3.75e5	27170	inactive
30	CG15547	1	1.40e5	1.12e5	1.64e5	1.49e5	10632	inactive
31	CG16820	1	1.76e5	2.22e5	1.51e5	1.50e5	14440	inactive
32	YME1L (YME1 like ATPase)	1	1.89e5	1.76e5	1.79e5	2.04e5	13078	inactive
33	hdm (hold'em)	1	1.45e5	1.37e5	2.78e5	2.39e5	10635	inactive
34	nompA (no mechanoreceptor potential A)	1	91350	1.06e5	1.34e5	99215	9255	inactive
35	ttv (tout-velu)	1	89430	89775	85280	1.02e5	9110	inactive
36	CG14490	1	76995	1.04e5	1.15e5	1.16e5	6885	inactive
37	Atat (alpha-tubulin acetylase)	1	1.24e5	1.13e5	79195	45795	9315	inactive
38	Cht9 (Chitinase 9)	1	1.81e5	1.83e5	1.69e5	1.82e5	13415	inactive
39	H2.0 (Homeodomain protein 2.0)	1	1.63e5	1.41e5	1.87e5	1.89e5	11415	inactive
40	kek4 (kekkon 4)	1	2.31e5	2.12e5	1.96e5	2.28e5	18135	inactive
41	GstD10 (Glutathione S transferase D10)	1	1.03e5	80350	67655	46745	5582	inactive
42	odd (odd skipped)	1	7710	5075	9150	7700	2615	inactive
43	Flacc (Fl(2)d-associated complex component)	1	1.14e5	88295	62220	47110	9845	inactive
44	mRpS28 (mitochondrial ribosomal protein S28)	1	33205	32145	28325	31565	3815	inactive
45	UQCR-C2 (Ubiquinol-cytochrome c reductase core protein 2)	1	67865	65475	96290	75020	2960	inactive
46	CG10934	1	87915	94155	1.88e5	1.70e5	8605	inactive
47	mri (mrityu)	1	80130	1.09e5	1.44e5	1.51e5	7925	inactive
48	CG18268 + CG3014	1	87770	76500	87090	63355	8270	inactive
49	RpS5a (Ribosomal protein S5a)	1	91555	92660	69755	30050	5445	inactive
50	Obp22a (Odorant-binding protein 22a)	1	95135	71610	1.24e5	1.29e5	7335	inactive
